Among the data in PubChem BioAssay AID280 (DTP/NCI, 2004) are survivor count and T/C values, retold here.

The list is a part of this screen's results and no random one: it is rich in T/C values a quarter to a half above the control, in often repeated tests (any T/C) and in doses without a T/C. Further doses and runs are listed elsewhere. T/C gives the treated animals as a percentage of the vehicle group. Some doses have a count of surviving animals in place of a T/C: the source holds a T/C of zero for them, seemingly a mark for toxic or unscored doses. Some survivor counts are full or nearly so, which does not show that the dose was tolerated: the source hardly ever lists a survival T/C far under the control, and the zero likely stands for such cases as well. Survivors were counted at the toxicity check, usually on the fifth day, unless a day is given; later deaths do not show. Schedule codes are those of the source, taken here to give the interval after Q, in days (D) or hours (H), and the number of doses after X. Some entries hold several experiments; their values stand side by side, smallest first. For survival time, the PubChem record calls one and a half times the control and up active, and a quarter to a half above the control has no call in these data; cut-offs in other NCI protocols can differ. Some T/C values carry the count of animals alive at the toxicity check (mostly the fifth day); without a count, all were alive then.

The test system of this experiment is nude mice, LOX melanoma ip, survival T/C. In words: NCI In Vivo Anticancer Drug Screen. Data for tumor model Human Amelanotic Melanoma (LOX) (intraperitoneal) in NU/NU BALB/C (nude) mice. The conditions noted are these: T/C endpoint: median survival time, schedule: Q04DX003 (ip), higher T/C = longer survival. How it is done:
The antitumor activity of compounds was measured in mice bearing transplantable tumors. Survival or tumor size were measured and the results are expressed as the measurement made in the treated group (T) divided by the measurement made in the vehicle treated control group (C). The tumor model used in this assay is Human Amelanotic Melanoma (LOX) (intraperitoneal) in NU/NU BALB/C (nude) mice

The mark [1] stands for this setting: dose: 300.0 mg/kg/injection, vehicle: water.
Where [2] appears, read: dose: 75.0 mg/kg/injection, vehicle: Klucel (hydroxypropylcellulose) (HPC).
Where [3] appears, read: dose: 150.0 mg/kg/injection, vehicle: Klucel (hydroxypropylcellulose) (HPC).
Setting [4] is: dose: 300.0 mg/kg/injection, vehicle: Klucel (hydroxypropylcellulose) (HPC).
[5] abbreviates: dose: 600.0 mg/kg/injection, vehicle: saline with Tween-80.
The mark [6] stands for this setting: dose: 400.0 mg/kg/injection, vehicle: water.

Turning to `CC[C@@]1(O)C(=O)OCc2c1cc1n(c2=O)Cc2cc3c(N)cccc3nc2-1`, the survivor count (dose: 6.67 mg/kg/injection, vehicle: saline with Tween-80) is listed as 3 of 6 on day 10 and the survivor count (dose: 8.0 mg/kg/injection, vehicle: saline with Tween-80) was 2 of 6 on day 10.
Consider `O=C1CN(CCN2CC(=O)N(CN3CCOCC3)C(=O)C2)CC(=O)N1CN1CCOCC1`, for which the survivor count is recorded as 2 of 6 on day 10 (dose: 150.0 mg/kg/injection, vehicle: saline with Tween-80); 2 of 6 on day 10 (dose: 300.0 mg/kg/injection, vehicle: saline with Tween-80); 1 of 6 on day 10 under setting [1]; 0 of 6 on day 10 (dose: 600.0 mg/kg/injection, vehicle: water).
On to `c1ccc2c3c(c4c(c2c1)CN(C1CCCCC1)CO4)OCN(C1CCCCC1)C3`, for which the survivor count is 6 of 6 on day 10 (dose: 150.0 mg/kg/injection, vehicle: water) and 0 of 6 on day 10 under setting [1].
Consider `CCCCN1C(=O)N(c2ccc(OCC)cc2)C2N(CCCC)C1C(C)(C)C2(C)C` (configuration not stated), for which the survivor count is 6 of 6 on day 10 (dose: 120.0 mg/kg/injection, vehicle: saline with Tween-80); 0 of 6 on day 10 (dose: 240.0 mg/kg/injection, vehicle: saline with Tween-80); 0 of 6 on day 10 (dose: 480.0 mg/kg/injection, vehicle: saline with Tween-80); 0 of 6 on day 10 (dose: 960.0 mg/kg/injection, vehicle: saline with Tween-80).
Regarding `O=C(Nc1cccc(O)c1)C(Cl)=C(Cl)Cl`, under “dose: 100.0 mg/kg/injection, vehicle: DMSO”, the survivor count was 3 of 6 on day 10.
`O=c1[nH]cnc2c1nnn2C1OC(CO)C(O)C1O` (configuration not stated): the T/C reads like this: (dose: 75.0 mg/kg/injection, vehicle: suspension in saline) 128 % of control; (dose: 150.0 mg/kg/injection, vehicle: suspension in saline) 137 % of control; (dose: 300.0 mg/kg/injection, vehicle: suspension in saline) 128 and 145 % of control; (dose: 500.0 mg/kg/injection, vehicle: suspension in saline) 147 % of control; (dose: 600.0 mg/kg/injection, vehicle: suspension in saline) 144 % of control; (dose: 1200.0 mg/kg/injection, vehicle: suspension in saline) 141 % of control. The T/C (dose: 1388.0 mg/kg/injection, vehicle: suspension in saline) was 138 % of control.
For `CC(C)(C[NH-])C[NH-].[Cl][Pt+2][Cl]`, the T/C (dose: 0.75 mg/kg/injection, vehicle: water) was 136 % of control; the T/C (dose: 1.5 mg/kg/injection, vehicle: water) is 127 % of control; the T/C (dose: 3.0 mg/kg/injection, vehicle: water) is 135 % of control; the T/C (dose: 12.0 mg/kg/injection, vehicle: water) was 131 % of control [4 of 6 alive on day 10]. In addition, the survivor count (dose: 6.0 mg/kg/injection, vehicle: water) was 6 of 6 on day 10.
As to `COc1cc2c(cc1OC)[C@@H]1C(=O)c3ccc4c(c3O[C@@H]1CO2)C[C@H](C(C)C)O4`, the survivor count is, setting by setting: under setting [2], 2 of 6 on day 10; under setting [3], 0 of 6 on day 10; under setting [4], 0 of 6 on day 10.
As for `C=Cc1cc(OC)c2c(c1)c(=O)oc1c2cc(OC)c2c(O)ccc(C3OC(C)C(O)C(C)(O)C3O)c21` (configuration not stated), the T/C (dose: 37.5 mg/kg/injection, vehicle: DMSO) is 133 % of control; the T/C (dose: 75.0 mg/kg/injection, vehicle: DMSO) was 145 % of control [5 of 6 alive on day 10]; the T/C (dose: 150.0 mg/kg/injection, vehicle: DMSO) is 127 % of control. The survivor count (dose: 300.0 mg/kg/injection, vehicle: DMSO) is recorded as 3 of 6 on day 10.
`OCC1OC(n2cnc3c2NC=NC[C@H]3O)CC1O` (some centres not stated): the survivor count (dose: 32.0 mg/kg/injection, vehicle: saline) is reported as 6 of 6 on day 10.
As for `COc1cccc2c1C(CO)N1C(C#N)C3CC(C(=O)O)C(C1C2)N3C` (configuration not stated), the T/C runs as follows: (dose: 1.56 mg/kg/injection, vehicle: saline) 146 % of control; (dose: 3.12 mg/kg/injection, vehicle: saline) 146 % of control; (dose: 3.12 mg/kg/injection, vehicle: suspension in saline) 137 % of control; (dose: 6.25 mg/kg/injection, vehicle: saline) 147 % of control; (dose: 6.25 mg/kg/injection, vehicle: suspension in saline) 148 % of control. Also, the survivor count is given as 6 of 6 on day 10 (dose: 25.0 mg/kg/injection, vehicle: suspension in saline) and 3 of 6 on day 10 (dose: 50.0 mg/kg/injection, vehicle: suspension in saline).
`[NH-]C(CCC(N)=O)C(=O)O.[NH-]C(CCC(N)=O)C(=O)O.[Zn+2]` (configuration not stated): the survivor count reads like this: (dose: 100.0 mg/kg/injection, vehicle: saline with Tween-80) 2 of 6 on day 10; (dose: 200.0 mg/kg/injection, vehicle: saline with Tween-80) 0 of 6 on day 10.
Regarding `O=C(CCCCCCC(=O)ON1C(=O)CCC1=O)ON1C(=O)CCC1=O`, the survivor count by setting is: under setting [5], 0 of 6 on day 10; (dose: 1200.0 mg/kg/injection, vehicle: saline with Tween-80) 0 of 6 on day 10.
As for `COc1ccc(/C=C\c2cc(OC)c(OC)c(OC)c2)c(O)c1O`, the T/C (dose: 50.0 mg/kg/injection, vehicle: saline + Tween-80 + alcohol) is 131 % of control [4 of 6 alive on day 10]. Further, the survivor count (dose: 100.0 mg/kg/injection, vehicle: saline + Tween-80 + alcohol) is 1 of 6 on day 10.
Turning to `O=S(=O)(O)c1cc(N=C=S)ccc1/C=C/c1ccc(N=C=S)cc1S(=O)(=O)O`, the survivor count (dose: 1.88 mg/kg/injection, vehicle: saline) is 6 of 6 on day 10.
On to `Cc1c(O)/c(=C\O)c2nc3c(=O)ccc(C(=O)NCCN(C)C)c3[nH]c2c1=O`, for which the survivor count is 2 of 6 on day 10 (dose: 240.0 mg/kg/injection, vehicle: water); 1 of 6 on day 10 and 2 of 6 on day 10 under setting [6]; 0 of 6 on day 10 (dose: 667.0 mg/kg/injection, vehicle: water). For the same molecule, under setting [6], the T/C is 148 % of control [5 of 6 alive on day 10].
Turning to `COc1cc(C)c(C2NC(=O)c3ccccc3N2)cc1C` (configuration not stated), the T/C was 135 % of control under setting [2], 149 % of control under setting [3] and 145 % of control under setting [4].
On to `CS(=O)(=O)Nc1ccc(C(=O)CCN2CCCCCC2)cc1`, for which, under setting [5], the survivor count is 1 of 6 on day 10.
Consider `C=C1c2cccc(O)c2C(O)=C2C(=O)[C@]3(O)C(O)=C(C(N)=O)C(=O)[C@@H](N(C)C)[C@@H]3[C@@H](O)[C@H]12`, for which the survivor count under setting [3] is 5 of 6 on day 10 and the survivor count (dose: 600.0 mg/kg/injection, vehicle: Klucel (hydroxypropylcellulose) (HPC)) is recorded as 0 of 6 on day 10.
